# In PubChem BioAssay (NCATS):
# Sequences of proteins named here, by UniProt entry; tags and fusion partners are left off. A change or cut given only in a name is not applied to a line headed by its entry.
# UniProt A8B2U2: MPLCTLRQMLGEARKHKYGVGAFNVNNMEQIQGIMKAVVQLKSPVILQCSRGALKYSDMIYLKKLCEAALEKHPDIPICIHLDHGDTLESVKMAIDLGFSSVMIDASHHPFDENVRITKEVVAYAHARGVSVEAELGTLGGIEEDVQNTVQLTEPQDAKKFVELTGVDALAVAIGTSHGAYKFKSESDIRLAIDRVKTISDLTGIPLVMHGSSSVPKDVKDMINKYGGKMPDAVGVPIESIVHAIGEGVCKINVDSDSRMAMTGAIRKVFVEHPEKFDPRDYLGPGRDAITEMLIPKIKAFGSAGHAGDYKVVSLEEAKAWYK
# UniProt P00883: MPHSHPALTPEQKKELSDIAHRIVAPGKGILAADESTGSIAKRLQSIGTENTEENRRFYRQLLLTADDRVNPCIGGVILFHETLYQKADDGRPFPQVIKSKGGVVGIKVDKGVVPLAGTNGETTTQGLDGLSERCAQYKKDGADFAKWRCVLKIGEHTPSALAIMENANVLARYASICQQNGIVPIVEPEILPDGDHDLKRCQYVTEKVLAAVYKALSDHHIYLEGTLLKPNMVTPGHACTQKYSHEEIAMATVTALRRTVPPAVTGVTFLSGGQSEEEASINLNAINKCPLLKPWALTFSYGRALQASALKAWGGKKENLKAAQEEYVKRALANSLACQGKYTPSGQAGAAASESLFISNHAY
# UniProt Q9Y253: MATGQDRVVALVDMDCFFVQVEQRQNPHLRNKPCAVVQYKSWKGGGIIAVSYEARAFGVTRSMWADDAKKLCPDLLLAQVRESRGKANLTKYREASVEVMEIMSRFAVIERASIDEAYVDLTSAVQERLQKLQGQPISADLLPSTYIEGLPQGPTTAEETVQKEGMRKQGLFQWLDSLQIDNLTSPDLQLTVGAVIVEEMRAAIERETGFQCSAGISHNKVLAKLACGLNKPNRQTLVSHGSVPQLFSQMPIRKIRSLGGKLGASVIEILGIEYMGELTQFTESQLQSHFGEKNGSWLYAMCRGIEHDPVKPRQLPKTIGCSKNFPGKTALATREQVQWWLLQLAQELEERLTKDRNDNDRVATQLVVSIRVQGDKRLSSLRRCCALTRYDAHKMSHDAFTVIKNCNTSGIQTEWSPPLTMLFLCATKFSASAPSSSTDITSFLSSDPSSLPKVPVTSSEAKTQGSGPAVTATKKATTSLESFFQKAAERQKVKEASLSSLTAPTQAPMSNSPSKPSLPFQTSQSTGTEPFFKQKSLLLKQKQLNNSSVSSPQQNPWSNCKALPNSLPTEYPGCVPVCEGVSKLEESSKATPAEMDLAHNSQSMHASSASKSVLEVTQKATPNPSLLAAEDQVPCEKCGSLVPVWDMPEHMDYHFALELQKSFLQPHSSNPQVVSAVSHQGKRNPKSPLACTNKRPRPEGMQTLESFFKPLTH
# The inconclusive results got no clear call from the source; some entries with a clear call stand among them for comparison. For part of these data: Potencies of inconclusive entries are doubtful fits and often do not repeat. Calls of active or inactive are those of the source. Unless noted, the call rests on the fitted dose curve; in most records, active means well fitted curve in the direction sought with a large enough effect; inconclusive means small, poorly fitted or top-dose-only effect, or another doubt; inactive means no such curve, though single readings can be large; an effect the other way counts as inactive or inconclusive.
# Tests used:
# [1] = qHTS Assay for Inhibitors of Fructose-1,6-bisphosphate Aldolase from Giardia Lamblia: Giardia lamblia growth inhibition (AID 2785); conditions: Giardia lamblia trophozoite growth inhibition; activity change, negative = inhibition: at 57.5 µM (top of the series); further: nearly all actives have a fitted effect of over 70% in size; further: potency means the concentration at half of the fitted maximal effect; on activity change, negative = inhibition: on the % scale 0 is the no-effect control and ±100 the full control effect
# Outline: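 G. lamblia WB trophozoites (100 cells/well) in modified TYI-S-33 medium, pH 7.0, were exposed to pin-transferred compounds or DMSO for 48 h at 37C in sealed bags. Viability was read as ATPlite luminescence after 20 min at room temperature.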
# [2] = molecular target: Fructose-bisphosphate aldolase (Giardia intestinalis (strain ATCC 50803 / WB clone C6)) (UniProt A8B2U2); assay: qHTS Assay for Inhibitors of Fructose-1,6-bisphosphate Aldolase from Giardia Lamblia: Primary screen confirmation (AID 2787)
# Outline: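 Confirmation of primary hits by qHTS up to 57.5 uM final compound. Enzyme at 40 nM with 30 uM ZnCl2, 10 min RT pre-incubation, then substrate/coupling/resorufin-forming detection mix for 20 min before fluorescence read at 525/598 nm.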
# [3] = molecular target: Fructose-bisphosphate aldolase A (Oryctolagus cuniculus) (UniProt P00883); assay: qHTS Assay for Inhibitors of Fructose-1,6-bisphosphate Aldolase from Giardia Lamblia: Rabbit FBPA Selectivity (AID 2794)
# Outline: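 Each compound, dosed at up to 57.5 uM final, was first mixed with coupling enzyme reagent for 10 min. Aldolase substrate and the AmpLite Red coupling system then ran 20 min at RT before a single fluorescence read.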
# [4] = molecular target: DNA polymerase eta (Homo sapiens) (UniProt Q9Y253); assay: qHTS for Inhibitors of Polymerase Eta: Confirmatory Assay for Cherry-picked Compounds (AID 720502); conditions: Pol eta primer extension, TAMRA/BHQ fluorescence, 10 min; further: potency means the concentration at half of the fitted maximal effect
# Outline: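 Plates with 10 nM enzyme and compound stood 15 min at room temperature before substrate addition (50 nM final). Displacement of the TAMRA reporter from the BHQ-2 template was tracked for 10 min.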
# [5] = qHTS Assay for Inhibitors of Fructose-1,6-bisphosphate Aldolase from Giardia Lamblia: Mammalian cellular toxicity (AID 2786); conditions: mammalian cell viability counter-screen; viability change, negative = toxicity: at 57.5 µM (top of the series);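 further: compound exposure lasted 48 h before reading; on the % scale 0 is the no-effect control and ±100 the full control effect; nearly all actives have a fitted effect of over 60% in size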
# Outline: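 Chinese hamster ovary cells (250/well, DMEM with 10% FBS and penicillin/streptomycin) were exposed to compounds for 48 h at 37 °C, 5% CO2. Viability was taken as cellular ATP content, read with ATPlite reagent after 20 min.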
# [6] = qHTS screen for small molecules that inhibit ELG1-dependent DNA repair: Hit Confirmation in Cell-Based Luciferin Assay (AID 624247); conditions: cell-free firefly luciferase luminescence counter-screen, ViewLux; further: potency means the concentration at half of the fitted maximal effect
# Outline: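 Here each well gets substrate reagent, then test compound or DMSO, then luciferase. Emitted light is measured with a CCD plate reader.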
# [7] = AP1 Signaling Pathway (AID 357; active means well fitted curve in either direction with a large enough effect, not every such curve was filed as active; inconclusive means small, poorly fitted or top-dose-only effect, or another doubt;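 further: ME-180 reporter cells stimulated with EGF at its EC50 level; on the % scale 0 is the no-effect control and ±100 the full control effect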); conditions: ME-180 (cervical carcinoma) AP-1-bla reporter, EGF-induced, beta-lactamase ratio, 5 h; at 17.2 µM (top of the series) unless noted
# Outline: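 In this screen, ME-180 cells in Opti-MEM with 0.5% dialyzed FBS received EC50 EGF and compound titrations for 5 h. AP-1 reporter beta-lactamase was detected via CCF4 ratio, giving AC50 for positive and negative modulators.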
# [8] = NFAT Signaling Pathway (AID 444; active means well fitted curve in either direction with a large enough effect, not every such curve was filed as active; inconclusive means small, poorly fitted or top-dose-only effect, or another doubt;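 further: carbachol stimulus at about its EC50 of 1 µM final; on the % scale 0 is the no-effect control and ±100 the full control effect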); conditions: Jurkat NFAT-bla M1, carbachol, beta-lactamase ratio, 5 h; at 7.69 µM (top of the series) unless noted
# Outline: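 Jurkat cells carrying an NFAT-driven β-lactamase reporter and co-transfected muscarinic M1 receptor were treated with compound plus carbachol (1 uM final, an EC50 level) for 5 h at 37 °C. CCF4 loading followed for 1 h at RT; 460/530 nm ratio gave %activity.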
# [9] = molecular target: Mitogen-activated protein kinase 10 (Mus musculus) (UniProt Q61831); assay: JNK3 AlphaScreen Assay (AID 530; active means well fitted curve in either direction with a large enough effect, not every such curve was filed as active; inconclusive means small, poorly fitted or top-dose-only effect, or another doubt;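 further: kinase came from lysate of stimulated human HepG2 cells; signal reports phosphorylation of biotinylated GST-cJun 1-79 at Ser73 with 10 µM ATP; on the % scale 0 is the no-effect control and ±100 the full control effect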); conditions: JNK3 lysate, c-Jun phosphorylation; activity change, negative = inhibition: at 57.1 µM (top of the series)
# Outline: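 JNK3 came from HepG2 lysates pre-activated with IL-1beta and TNF-alpha and phosphorylated biotinylated GST-cJun (1-79) at 10 uM ATP, pH 7.6, room temperature. Compounds were titrated. AlphaScreen signal used anti-phospho-cJun (Ser73) antibody.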
# 3D7 = assay: qHTS profiling for inhibitors of Plasmodium falciparum proliferation (AID 504749); further: nearly all actives have a fitted effect of over 60% in size; further: potency means the concentration at half of the fitted maximal effect;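 on activity, negative = inhibition: 0% = DMSO vehicle and full inhibition = artemisinin control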; conditions: P. falciparum in erythrocytes, SYBR Green DNA, 72 h; series mostly up to 28.7 µM
# Outline: (§1)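 P. falciparum-infected erythrocytes (0.3% parasitemia, 2.5% hematocrit final) were exposed to compounds for 72 h at 37 C in 5% CO2, then lysed with SYBR Green buffer overnight at room temperature; parasite DNA fluorescence was normalized to artemisinin and DMSO controls.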
# ATS95 = assay: as above; conditions: P. falciparum in erythrocytes, SYBR Green DNA, 72 h; series mostly up to 28.7 µM
# Outline: as §1
# CP215 = assay: as above; conditions: P. falciparum in erythrocytes, SYBR Green DNA, 72 h; series mostly up to 28.7 µM
# Outline: as §1
# CP297 = assay: as above; conditions: P. falciparum in erythrocytes, SYBR Green DNA, 72 h; series mostly up to 28.7 µM
# Outline: as §1
# CP335 = assay: as above; conditions: P. falciparum in erythrocytes, SYBR Green DNA, 72 h; series mostly up to 28.7 µM
# Outline: as §1
# Dd2 = assay: as above; conditions: P. falciparum in erythrocytes, SYBR Green DNA, 72 h; series mostly up to 28.7 µM
# Outline: as §1
# ECU = assay: as above; conditions: P. falciparum in erythrocytes, SYBR Green DNA, 72 h; activity, negative = inhibition: at 28.7 µM (top of the series)
# Outline: as §1
# FAB9 = assay: as above; conditions: P. falciparum in erythrocytes, SYBR Green DNA, 72 h; series mostly up to 28.7 µM
# Outline: as §1
# PAD = assay: as above; conditions: P. falciparum in erythrocytes, SYBR Green DNA, 72 h; series mostly up to 28.7 µM
# Outline: as §1
# SC27B = assay: as above; conditions: P. falciparum in erythrocytes, SYBR Green DNA, 72 h; series mostly up to 28.7 µM
# Outline: as §1
# TAB113 = assay: as above; conditions: P. falciparum in erythrocytes, SYBR Green DNA, 72 h; activity, negative = inhibition: at 28.7 µM (top of the series)
# Outline: as §1
# W2 = assay: as above; conditions: P. falciparum in erythrocytes, SYBR Green DNA, 72 h; series mostly up to 28.7 µM
# Outline: as §1
structure (smiles),measurement,setting,value
CN1CC[C@@]2(C)c3cc(O)ccc3N(C)C2O1 (stereo partly drawn),Potency,[1],"inconclusive: 31.6 µM [inhibitor, single point]"
same,Potency,[2],active: 2.51 µM
same,Potency,[3],active: 3.55 µM
same,Potency,[4],"inconclusive: 95.3 µM [inhibitor, single point]"
NC(=S)c1cn(C2OC(CO)C(O)C2O)c2ncnc(N)c12 (stereo not drawn),Potency,[1],inactive
same,"viability change, negative = toxicity",[5],inconclusive: -93.4% [activator]
same,Potency,[6],"inconclusive: 0.177 µM [inhibitor, full curve]"
C[C@]1(O)CC[C@H]2[C@@H]3[C@@H](O)CC4=CC(=O)CC[C@@]4(C)[C@H]3CC[C@]21C,"activity change, negative = inhibition",[7],inactive: 1.55% [at 7.69 µM]
CN1C(=O)NC(=O)/C(=C/c2ccc([N+](=O)[O-])o2)C1=O,Potency,[1],"inconclusive: 25.1 µM [inhibitor, single point]"
same,Potency,[2],"inconclusive: 25.1 µM [inhibitor, partial curve]"
same,Potency,[3],"inconclusive: 63.1 µM [inhibitor, partial curve]"
CCCCn1c(NS(=O)(=O)c2ccccc2)c(C(=O)OCC)c2nc3ccccc3nc21,Potency,[2],"inconclusive: 12.6 µM [inhibitor, full curve, poor fit]"
O=C(O)CC1OCC=C2CN3CCC45C6=CC(=O)C(=O)C([N+](=O)[O-])=C6NC4C1C2CC35 (stereo not drawn),Potency,[1],active: 12.6 µM
same,Potency,[5],inactive
same,Potency,[3],active: 8.91 µM
N=C(N)n1cc(/C=N\N=C(N)N)cn1,"activity change, negative = inhibition",[7],inactive: 8.06% [at 7.69 µM]
C[N+]1(C)C2CC[C@H]1CC(OC(=O)[C@@H](CO)c1ccccc1)C2 (stereo partly drawn),"activity change, negative = inhibition",[7],inactive: 4% [at 7.69 µM]
same,"activity change, negative = inhibition",[8],inconclusive: -75% [inhibitor]
same,"activity change, negative = inhibition",[9],inactive: 2.63% [at 11.4 µM]
same,Potency,3D7,"inconclusive: 3.98 µM [inhibitor, single point]"
same,Potency,ATS95,"inconclusive: 17.8 µM [inhibitor, single point]"
same,Potency,CP215,"inconclusive: 15.1 µM [inhibitor, single point]"
same,Potency,CP297,inactive
same,Potency,CP335,"inconclusive: 4.26 µM [inhibitor, single point]"
same,Potency,Dd2,"inconclusive: 17.8 µM [inhibitor, single point]"
same,Potency,ECU,"inconclusive: 0.316 µM [inhibitor, partial curve, poor fit]"
same,Potency,FAB9,inactive
same,Potency,PAD,inactive
same,Potency,SC27B,inactive
same,Potency,TAB113,"inconclusive: 14.1 µM [inhibitor, partial curve, poor fit]"
same,Potency,W2,inactive
Cc1c(N=Cc2c(O)n(CCc3ccccc3)c(=O)[nH]c2=O)c(=O)n(-c2ccccc2)n1C,"activity change, negative = inhibition",[7],inactive: -11.1%
same,"activity change, negative = inhibition",[8],inconclusive: -69.3% [inhibitor] [at 17.2 µM]

# A different layout for some results above:
structure (smiles)	measurement	setting	value
CN1CC[C@@]2(C)c3cc(O)ccc3N(C)C2O1 (stereo partly drawn)	Potency	[3]	active: 3.55 µM
CCCCn1c(NS(=O)(=O)c2ccccc2)c(C(=O)OCC)c2nc3ccccc3nc21	Potency	[2]	inconclusive: 12.6 µM [inhibitor, full curve, poor fit]
C[N+]1(C)C2CC[C@H]1CC(OC(=O)[C@@H](CO)c1ccccc1)C2 (stereo partly drawn)	Potency	ECU	inconclusive: 0.316 µM [inhibitor, partial curve, poor fit]
